In all, about 3,200 compounds were measured (“TSA(without NAD+) / Primary screening (TSA) / delta Tm (K)”: median about -0.07, highest 2% from about 0.37 on). The list shows a part of the results.
Each compound was assayed against NAD-dependent deacetylase Sirtuin 1 (human, UniProt Q96EB6) (assay: primary screen, delta tm). Conditions: 10 µM.
Set-up: single well (n = 1)
Procedure: A total of 3,192 compounds extracted from the proposed lists were first screened by thermal shift assay (TSA), which determined a melting temperature shift (ΔTm) of Sirtuin 1 upon the addition of a test compound at a concentration of 10 µM (n = 1) with primary hit criteria of ΔTm > 0.45 K or ΔTm < −1.5 K. Primary hits (48 compounds) were retested in the same assay at three concentrations (5, 10, 20 µM, n = 4) for hit confirmation and for dose-dependency check. Secondary hits (41 compounds) were checked their selectivity for Sirtuin 1 based on counterscreening on unrelated protein targets (bovine carbonic anhydrase (CA) and recombinant SH2 domain of hABL1 kinase (ABL1)) at three different concentrations (5, 10, 20 µM, n = 4), which yielded 38 hit compounds, hereafter referred to as TSA hits. The TSA screening above was conducted in the absence of NAD+.

Amino acid sequences for entries named in this document (tags omitted). Residues count along the entry.
UniProt Q96EB6, 2-747 limits assumed: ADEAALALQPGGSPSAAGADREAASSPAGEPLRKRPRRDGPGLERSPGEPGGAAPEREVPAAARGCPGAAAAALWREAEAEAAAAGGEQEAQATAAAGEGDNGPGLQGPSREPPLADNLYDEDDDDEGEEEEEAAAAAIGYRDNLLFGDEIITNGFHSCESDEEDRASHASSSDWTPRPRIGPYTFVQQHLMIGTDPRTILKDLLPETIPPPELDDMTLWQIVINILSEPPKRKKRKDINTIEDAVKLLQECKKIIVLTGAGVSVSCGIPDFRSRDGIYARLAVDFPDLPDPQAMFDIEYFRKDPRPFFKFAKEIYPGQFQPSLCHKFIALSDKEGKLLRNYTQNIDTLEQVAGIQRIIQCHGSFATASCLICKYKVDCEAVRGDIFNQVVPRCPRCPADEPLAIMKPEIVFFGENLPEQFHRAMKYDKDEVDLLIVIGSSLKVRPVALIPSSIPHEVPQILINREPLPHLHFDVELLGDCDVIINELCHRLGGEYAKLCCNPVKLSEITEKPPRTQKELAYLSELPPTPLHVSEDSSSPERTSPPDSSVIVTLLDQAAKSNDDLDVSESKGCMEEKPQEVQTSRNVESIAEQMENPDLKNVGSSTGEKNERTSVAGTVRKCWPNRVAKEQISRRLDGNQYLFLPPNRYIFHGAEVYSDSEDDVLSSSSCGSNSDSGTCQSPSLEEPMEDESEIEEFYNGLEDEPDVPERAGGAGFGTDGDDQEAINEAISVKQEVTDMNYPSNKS

SMILES | TSA(without NAD+) / Primary screening (TSA) / delta Tm (K)
Cc1ccc(-c2noc(C(C)N3CCN(c4nc(C(F)(F)F)nc5ccccc45)CC3)n2)cc1 (stereo not drawn) | 0.02
O=C1CN(c2ncc(Br)cn2)C2CCCCC2N1 (stereo not drawn) | -0.22
O=C(CSC1CCS(=O)(=O)C1)Nc1nnc(SCc2c(Cl)cccc2Cl)s1 (stereo not drawn) | -0.02
CCC(C)C(C)N (stereo not drawn) | -0.12
Cn1ccc(NC(=O)CSc2ccc3c4c(cccc24)C(=O)c2ccccc2-3)n1 | 0.18
Cc1cc(C(=O)NCc2nnc3ccccn23)c(C)n1-c1ccccc1 | -0.27
CCOCc1cn(CC(=O)c2ccc(OC)cc2)c(C)nc1=N | 0.08
CCOc1ccc(Oc2ccc(NS(=O)(=O)c3cc(C(=O)O)ccc3Cl)cc2)cc1 | 0.08
NC(=O)C1CCN(C(=O)c2c[nH]c3ccc(Br)cc23)CC1 | 0.02
O=C(Cc1cccc2ccccc12)Nc1ccccc1Cc1ccccc1 | -0.04
CCONC(=O)c1cccc(I)c1 | 0.08
COc1ccc(CCn2c(C)cc(C(=O)COC(=O)C34CC5CC(CC(O)(C5)C3)C4)c2C)cc1 | -0.23
CCCOc1ccc(C(=O)C2=C(O)C(=O)N(CCCN3CCOCC3)C2c2ccc(C)o2)cc1 (stereo not drawn) | 0.17
CCCCCOc1ccc(C(=O)CCC(=O)OCC(=O)Nc2cccc(S(=O)(=O)/N=C3/CCCCCN3)c2)cc1 | -0.03
CCCNC(=O)c1ccc2[nH]c(C)c(C)c2c1 | -0.08
COc1ccc(CCNCc2ccc(OCc3ccccc3)cc2)cc1 | -0.03
Cc1ccc(-c2nnc(SCC(=O)NC(C)C(C)C)n2N)cc1 (stereo not drawn) | 0.05
CC(C)(N)CCCN | -0.22
CN(C)C(CNC(=O)C1CCCc2ccccc21)c1ccccc1 (stereo not drawn) | -0.13
CN(c1ccc(C(N)=O)cc1)S(=O)(=O)c1ccc(F)c(C(F)(F)F)c1 | -0.24
O=c1[nH]c(=O)c2cc(S(=O)(=O)N3CCc4ccccc4C3Cc3ccccc3)ccc2[nH]1 (stereo not drawn) | -0.17
C=CCOc1cccc(C2C(C(=O)c3cccs3)=C(O)C(=O)N2CCCN2CCOCC2)c1 (stereo not drawn) | 0.06
Cc1cccc(NC(=O)CCNC(=O)C2=CCCCCC2)n1 | -0.08
Cn1cc(S(=O)(=O)N2CCN(C(=O)CCNC(=O)c3ccsc3)CC2)cc1C(N)=O | -0.07
CN(C)C(=O)c1ccc(F)cc1Br | -0.23
Cc1cocc1CCCO | -0.24
O=C(Nc1ccc(F)cc1F)C(F)C(F)(F)F (stereo not drawn) | -0.14

Given in CSV form: part of the list above.
SMILES,TSA(without NAD+) / Primary screening (TSA) / delta Tm (K)
Cc1ccc(-c2noc(C(C)N3CCN(c4nc(C(F)(F)F)nc5ccccc45)CC3)n2)cc1 (stereo not drawn),0.02
O=C1CN(c2ncc(Br)cn2)C2CCCCC2N1 (stereo not drawn),-0.22
